# Measurements taken from PubChem BioAssay (NCATS).
# Protein sequences, listed by entry. Tags and fused reporters are not part of them. Lines headed by an entry give the natural chain unless they say otherwise; changes in a name come on top.
# UniProt Q8WZA2: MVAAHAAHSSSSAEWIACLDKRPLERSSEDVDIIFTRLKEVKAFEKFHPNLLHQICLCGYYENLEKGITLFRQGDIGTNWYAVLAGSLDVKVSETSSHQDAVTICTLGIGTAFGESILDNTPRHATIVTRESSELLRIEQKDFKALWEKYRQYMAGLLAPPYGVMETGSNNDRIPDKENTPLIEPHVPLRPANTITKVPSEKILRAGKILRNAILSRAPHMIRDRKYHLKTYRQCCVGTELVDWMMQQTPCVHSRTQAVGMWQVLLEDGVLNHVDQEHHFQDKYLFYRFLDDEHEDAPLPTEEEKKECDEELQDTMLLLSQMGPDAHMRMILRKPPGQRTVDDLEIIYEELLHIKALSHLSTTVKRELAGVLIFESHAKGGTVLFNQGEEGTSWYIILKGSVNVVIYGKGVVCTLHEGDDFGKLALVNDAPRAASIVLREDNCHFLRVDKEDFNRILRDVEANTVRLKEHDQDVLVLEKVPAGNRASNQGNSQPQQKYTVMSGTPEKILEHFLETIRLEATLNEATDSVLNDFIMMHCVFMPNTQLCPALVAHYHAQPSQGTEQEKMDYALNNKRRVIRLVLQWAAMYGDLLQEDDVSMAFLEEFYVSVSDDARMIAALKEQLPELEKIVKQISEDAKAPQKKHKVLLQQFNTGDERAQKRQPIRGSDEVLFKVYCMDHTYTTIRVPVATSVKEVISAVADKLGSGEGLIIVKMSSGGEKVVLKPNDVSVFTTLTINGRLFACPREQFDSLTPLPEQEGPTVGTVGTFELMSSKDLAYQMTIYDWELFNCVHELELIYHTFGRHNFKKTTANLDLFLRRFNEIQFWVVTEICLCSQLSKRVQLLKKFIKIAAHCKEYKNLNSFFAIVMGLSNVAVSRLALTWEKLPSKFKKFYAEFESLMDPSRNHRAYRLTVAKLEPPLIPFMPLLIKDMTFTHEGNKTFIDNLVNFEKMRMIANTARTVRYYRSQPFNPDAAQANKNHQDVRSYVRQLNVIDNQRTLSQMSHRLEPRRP
# Inconclusive means that the source gave no clear call. Such entries were picked first, then a sample of the others. A potency beside an inconclusive call is a rough fit, not a confirmed value. Active and inactive are the calls of the source. Calls come from the whole dose curve; as a rule, active = well fitted curve in the direction sought with a large enough effect; inconclusive = small, poorly fitted or top-dose-only effect, or another doubt; inactive = no such curve, though single readings can be large; an effect the other way counts as inactive or inconclusive.
# Target: Rap guanine nucleotide exchange factor 4 (Homo sapiens) (UniProt Q8WZA2)
# Experiment: Confirmatory qHTS for agonist of cAMP-regulated guanine nucleotide exchange factor 4 (EPAC2) (AID 1645884);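 note: nucleotide exchange releases bodipy-GDP from Rap1 and this lowers its fluorescence; nearly all actives have a fitted effect of over 65% in size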; for activation: % is set by controls: 0 for no effect and ±100 for the full control effect
# Conditions: EPAC2 GEF activity, Rap1B-BODIPY-GDP fluorescence; series mostly up to 154 µM
# Potency is the fitted concentration of half-maximal effect.
Structure (SMILES),Potency,activation
O=[N+]([O-])c1cc(-c2ccccc2)cc([N+](=O)[O-])c1O,inactive,
COc1cc(-c2c(CCO)sc3ccccc23)cc(OC)c1OC,,"inactive: 1.4% [at 17.1 µM, percent relative to cAMP agonist control]"
O=C(CCCOc1ccccc1)Nc1ccc(Cl)cn1,inactive,
COc1ccc(N2CCN(CC(O)COc3ccc(C(C)C)c(C)c3)CC2)cc1 (configuration not stated),"inconclusive: 35.5 µM [activator, partial curve, poor fit]",
COC(=O)CCNC(=O)NC(CCC(C)C)c1c(-n2cccc2)sc2c1CCN(C)C2 (configuration not stated),inactive,
N#Cc1ccc(CSc2nc(N)cc(N)n2)cc1,active: 112 µM,
COC(=O)c1c(SC)nc2ccccc2c1OCc1ccccc1Cl,"inconclusive: 50.1 µM [activator, single point]",
Cc1ccc2[nH]cc(C(c3ccccc3)c3ccc(C)s3)c2c1 (configuration not stated),inactive,
COC(=O)NCc1c(C)nn(-c2ccccc2)c1-n1cccc1,"inconclusive: 50.1 µM [activator, single point]",
O=C(NCC1CCCO1)c1ccc(C(=O)NCC2CCCO2)cc1 (configuration not stated),,"inactive: 5.86% [at 17.1 µM, percent relative to cAMP agonist control]"
O=S(=O)(NCc1ccccc1)c1ccc(S(=O)(=O)N(Cc2cccs2)CC2CCCO2)cc1 (configuration not stated),inactive,
CN(C)c1ccc(/C=C/C=C/c2ccnc3ccccc23)cc1,inactive,
Cc1ccc(-n2nc3c(=O)n(CCCC(=O)NCc4ccc(F)cc4)nc(C)c3c2C)cc1,"inconclusive: 50.1 µM [activator, single point]",
CC(=O)N1CCN(C(=O)c2[nH]c(C(F)(F)F)nc2-c2ccccc2)CC1,"inconclusive: 112 µM [activator, partial curve, poor fit]",
CC(=O)C1=CCC(c2cccc(Cl)c2)N(S(=O)(=O)c2ccc(C)cc2)C1 (configuration not stated),"inconclusive: 112 µM [activator, partial curve, poor fit]",
CCCC1CC(c2csc(N)n2)CCO1 (configuration not stated),inactive,
CCCCN(CCC#N)c1ccc(/C=C/c2ccnc3ccccc23)cc1,"inconclusive: 70.6 µM [activator, partial curve, poor fit]",
CCCCN(CCCC)c1ccc(/C=C/c2ccnc3ccccc23)cc1,"inconclusive: 88.9 µM [activator, single point]",
O=C1C=C(c2ccccc2Oc2ccccc2)C[C@@H](c2ccc3c(c2)OCO3)C1,"inconclusive: 126 µM [activator, partial curve, poor fit]",
O=c1c2ccccc2[nH]c(=S)n1-c1cccc(S(=O)(=O)N2CCCC2)c1,inactive,
C=Nc1ccc(/C=C/c2ccnc3ccccc23)cc1,"inconclusive: 35.4 µM [activator, partial curve, poor fit]",
Cc1cccc(NC(=O)CC2C(=O)OCCN2Cc2ccccc2)c1 (configuration not stated),"inconclusive: 50.1 µM [activator, partial curve, poor fit]",
Nc1nc2ccccc2n1S(=O)(=O)c1ccc([N+](=O)[O-])cc1,"inconclusive: 126 µM [activator, partial curve, poor fit]",
Cc1ccc([N+](=O)[O-])cc1NC(=O)CN(C1CCCCC1)S(=O)(=O)c1ccc(Cl)cc1,"inconclusive: 126 µM [activator, partial curve, poor fit]",
Cc1ccc2nc(SCC(=O)c3c(N)n(C4CC4)c(=O)[nH]c3=O)[nH]c2c1,"inconclusive: 63.1 µM [activator, partial curve]",
CN(CC(=O)O)c1ccc(/C=C/c2ccnc3ccccc23)cc1,inactive,

# Random excerpt: two entries already listed
Structure (SMILES),Potency,activation
Cc1ccc([N+](=O)[O-])cc1NC(=O)CN(C1CCCCC1)S(=O)(=O)c1ccc(Cl)cc1,"inconclusive: 126 µM [activator, partial curve, poor fit]",
Cc1ccc2nc(SCC(=O)c3c(N)n(C4CC4)c(=O)[nH]c3=O)[nH]c2c1,"inconclusive: 63.1 µM [activator, partial curve]",

# Target: Rap guanine nucleotide exchange factor 3 (Homo sapiens) (UniProt O95398)
# Experiment: Counterscreen qHTS for agonist of cAMP-regulated guanine nucleotide exchange factor 3 (EPAC1) (AID 1645889); note: nearly all actives have a fitted effect of over 40% in size; for activation: % of control where 0% means no effect
# Conditions: EPAC1 Rap1B-BODIPY-GDP exchange, fluorescence; activation: at 154 µM (top of the series) unless noted
# Outline: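 Measured: fluorescence of BODIPY-GDP bound to Rap1B, which falls as exchange proceeds. Conditions include 50 uM competing GDP, 5 and 30 min reads, and a later cAMP challenge for antagonist detection.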
Structure (SMILES),activation,Potency
Oc1ccc2nnc3c(Br)cnn3c2c1,inconclusive: 185% [activator],
COc1ccc2nc3ccccc3nc2c1NC(=O)c1ccc(Cl)cc1Cl,inconclusive: 14.6% [activator],
COc1ccc2noc3c2c1C(=O)c1ccccc1-3,,active: 20 µM
CCC(=O)N1CCc2cc(OC)c(OC)cc2C1COc1ccccc1OC (configuration not stated),inconclusive: 35% [activator],
CCOC(=O)C1=C(C)N=c2s/c(=C\c3cccn3C)c(=O)n2C1c1cccc(OC)c1OC (configuration not stated),,"inconclusive: 15.8 µM [activator, partial curve, poor fit]"
CN(C)c1ccc(/C=C2\SC(=S)N(Nc3ncc(C(F)(F)F)cc3Cl)C2=O)cc1,,active: 17.8 µM
Cc1nc2ccccc2n2c(O)c(CC(=O)O)cc12,,active: 44.7 µM
C#CCOc1ccc(/C=C2/C(=O)N(c3cccc(C(=O)O)c3)N=C2C)cc1OC,inactive: 10.5% [at 30.8 µM],
O=C1c2cccc3c(O)ccc(c23)C(=O)N1Cc1ccco1,,active: 70.8 µM
CSC1=NSC2=NC(=O)/C(=C/c3coc4ccccc4c3=O)C(=N)N12,,active: 39.8 µM
CC1=Nc2ccccc2/C1=C\c1nc(-c2ccc(F)cc2)oc1O,,active: 25.1 µM
